Measured values taken from paper PMC7373794.
These are yes or no findings as the source states them, for the method shown. Binding calls can cover weak binding; strength is not graded here. Sequences can lack the tags named with a protein.

Biological target: soluble C-terminal extension of ALA10 fused to the GAL4 binding domain (Arabidopsis thaliana)
Test: two-hybrid; GAL4 1-by-1 Y2H interaction assay (Hybrigenics Service); serial dilutions plated without tryptophane and leucine, without tryptophane, leucine and histidine, and the latter with 1 mM 3-aminotriazole

binding: binds
B1: full length PUB11 fused to the activation domain (protein, UniProt Q8GUG9 1-612)
chain: MAGGIVSPASLLDLIADIVEIPLNTGMFKKDCADLTRRVCLLTHLLEEIRDSTPIDSAASSSSENDWWSDLVVGLQAAKRLLSTARFQARDSSDGAAKRISFQFQCVTWKLEKALSNLPYDLYDISDEVGEQVELARSQLRRAMQRYGSLNSNKFSSALSEPMERDGFSNVIKIKAEEKLESVSETLHFGEEEEKQSSPPLRRSSSISLAYYLSKDADTDRLDKMVNKNTDESKKSDKLTIPVDFLCPVSLELMKDPVIVATGQTYERAYIQRWIDCGNLTCPKTQQKLENFTLTPNYVLRSLISRWCAEHNIEQPAGYINGRTKNSGDMSVIRALVQRLSSRSTEDRRNAVSEIRSLSKRSTDNRILIAEAGAIPVLVNLLTSEDVATQENAITCVLNLSIYENNKELIMFAGAVTSIVQVLRAGTMEARENAAATLFSLSLADENKIIIGGSGAIPALVDLLENGTPRGKKDAATALFNLCIYHGNKGRAVRAGIVTALVKMLSDSTRHRMVDEALTILSVLANNQDAKSAIVKANTLPALIGILQTDQTRNRENAAAILLSLCKRDTEKLITIGRLGAVVPLMDLSKNGTERGKRKAISLLELLRKACQ
